The values below come from paper PMC3490818.

Chains of the proteins cited; added tags and fusions are not shown. Lines headed by an entry give the natural chain unless they say otherwise; changes in a name come on top.
UniProt Q00341: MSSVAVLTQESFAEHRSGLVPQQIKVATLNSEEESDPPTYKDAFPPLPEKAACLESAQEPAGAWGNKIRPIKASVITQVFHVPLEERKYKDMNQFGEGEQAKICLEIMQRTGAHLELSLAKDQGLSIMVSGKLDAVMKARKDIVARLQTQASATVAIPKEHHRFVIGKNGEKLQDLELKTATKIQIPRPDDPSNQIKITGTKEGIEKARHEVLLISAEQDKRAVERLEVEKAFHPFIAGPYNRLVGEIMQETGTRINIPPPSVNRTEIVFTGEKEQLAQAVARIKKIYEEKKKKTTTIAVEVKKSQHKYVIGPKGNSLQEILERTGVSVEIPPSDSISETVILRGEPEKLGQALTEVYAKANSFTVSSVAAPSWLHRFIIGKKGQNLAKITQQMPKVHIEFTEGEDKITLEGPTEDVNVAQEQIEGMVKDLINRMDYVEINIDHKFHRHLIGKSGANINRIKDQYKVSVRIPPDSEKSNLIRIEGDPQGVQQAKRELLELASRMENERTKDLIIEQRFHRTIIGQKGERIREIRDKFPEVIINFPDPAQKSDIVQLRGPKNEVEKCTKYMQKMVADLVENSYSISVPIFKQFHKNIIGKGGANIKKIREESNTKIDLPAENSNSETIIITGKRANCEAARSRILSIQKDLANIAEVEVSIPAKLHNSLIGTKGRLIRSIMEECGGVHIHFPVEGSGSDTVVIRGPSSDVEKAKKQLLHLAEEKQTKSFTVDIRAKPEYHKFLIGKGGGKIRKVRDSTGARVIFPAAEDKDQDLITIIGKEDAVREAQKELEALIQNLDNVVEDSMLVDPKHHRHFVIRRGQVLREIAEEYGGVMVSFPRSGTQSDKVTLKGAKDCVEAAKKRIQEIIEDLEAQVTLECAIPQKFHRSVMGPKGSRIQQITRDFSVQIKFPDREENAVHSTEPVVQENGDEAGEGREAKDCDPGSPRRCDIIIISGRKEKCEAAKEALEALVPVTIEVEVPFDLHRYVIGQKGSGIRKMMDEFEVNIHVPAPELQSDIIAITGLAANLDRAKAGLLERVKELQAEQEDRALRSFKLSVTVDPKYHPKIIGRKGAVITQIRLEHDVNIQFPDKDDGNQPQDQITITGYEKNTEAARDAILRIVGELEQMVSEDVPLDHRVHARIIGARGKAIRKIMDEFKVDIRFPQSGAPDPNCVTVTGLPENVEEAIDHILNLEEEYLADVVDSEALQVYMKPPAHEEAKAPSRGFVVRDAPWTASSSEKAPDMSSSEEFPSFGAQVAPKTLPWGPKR

The target in experiment [1] is T1, Signal peptide peptidase (human (endogenous in HEK293)) (UniProt Q8TCT9).
T1 sequence: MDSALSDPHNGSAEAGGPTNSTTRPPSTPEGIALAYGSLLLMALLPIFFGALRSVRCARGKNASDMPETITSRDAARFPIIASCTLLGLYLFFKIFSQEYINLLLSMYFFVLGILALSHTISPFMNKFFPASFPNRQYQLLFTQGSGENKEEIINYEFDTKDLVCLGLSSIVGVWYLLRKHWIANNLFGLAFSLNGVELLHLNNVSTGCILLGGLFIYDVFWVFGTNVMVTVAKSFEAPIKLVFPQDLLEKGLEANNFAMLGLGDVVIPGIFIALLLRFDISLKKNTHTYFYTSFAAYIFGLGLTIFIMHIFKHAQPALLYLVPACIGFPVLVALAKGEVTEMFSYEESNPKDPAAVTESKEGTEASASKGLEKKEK
Put plainly: native gel or EMSA; BN-PAGE of HEK293 or HEK293 vigilin-FLAG lysates solubilized in 0.5% DDM, Western blot for SPP and vigilin (or FLAG); second dimension SDS-PAGE for SPP. Background: Mobility shift assays separate free from complexed probe on a gel.

Experiment [2] deals with T1, Signal peptide peptidase (human (endogenous in HEK293)). The experiment is described as follows: co-IP; HEK293 or HEK293 vigilin-FLAG lysate solubilized in HEPES buffer with 0.5% DDM; antibodies against SPP-CT, SPPL2b, FLAG or vigilin, overnight at 4°C; five washes with 0.02% DDM; controls pre-immune rabbit serum or anti-HA; Western blot. On the technique in general: Immunoblotting shows a protein as a band on a membrane.

In experiment [3] the target is T2, SPPL2b (human (endogenous in HEK293)) (UniProt Q8TCT7).
T2 sequence: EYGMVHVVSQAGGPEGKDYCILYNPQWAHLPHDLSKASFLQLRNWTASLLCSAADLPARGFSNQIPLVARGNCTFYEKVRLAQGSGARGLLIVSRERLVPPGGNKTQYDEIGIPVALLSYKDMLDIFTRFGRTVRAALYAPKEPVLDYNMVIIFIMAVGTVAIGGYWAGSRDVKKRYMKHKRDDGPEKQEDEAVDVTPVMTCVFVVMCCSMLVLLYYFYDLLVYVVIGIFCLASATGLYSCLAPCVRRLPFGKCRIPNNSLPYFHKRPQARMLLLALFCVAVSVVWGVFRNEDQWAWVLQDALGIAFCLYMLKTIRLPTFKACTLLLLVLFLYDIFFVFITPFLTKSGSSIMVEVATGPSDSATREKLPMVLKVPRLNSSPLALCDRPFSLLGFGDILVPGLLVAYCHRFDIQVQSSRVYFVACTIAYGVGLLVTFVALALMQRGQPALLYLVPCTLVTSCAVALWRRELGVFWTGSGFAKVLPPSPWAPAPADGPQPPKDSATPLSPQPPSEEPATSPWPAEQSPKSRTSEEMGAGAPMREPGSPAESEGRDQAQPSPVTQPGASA
The description is as above.

For experiment [4], the target named is T3, Signal peptide peptidase (human (endogenous in HEK293)), Q8TCT9.
T3 chain: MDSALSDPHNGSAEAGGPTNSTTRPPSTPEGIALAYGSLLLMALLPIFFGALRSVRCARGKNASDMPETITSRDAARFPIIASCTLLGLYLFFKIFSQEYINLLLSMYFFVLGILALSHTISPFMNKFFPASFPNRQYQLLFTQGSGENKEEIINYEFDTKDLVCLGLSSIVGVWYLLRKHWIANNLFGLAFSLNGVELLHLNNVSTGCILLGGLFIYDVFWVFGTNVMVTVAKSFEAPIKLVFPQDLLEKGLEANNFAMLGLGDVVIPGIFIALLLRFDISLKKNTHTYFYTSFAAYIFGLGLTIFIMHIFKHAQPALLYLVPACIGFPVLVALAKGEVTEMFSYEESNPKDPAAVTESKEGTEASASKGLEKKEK
The experiment is described as above. The conditions noted are these: remark: other sources report otherwise.

Experiment [5] addresses T3, Signal peptide peptidase (human …). Put plainly: SDS-PAGE and Western blot of affinity-purified SPP; eluate of the anti-SPP-CT affinity purification from HEK293 microsomal membranes in 0.5% DDM, resolved by SDS-PAGE, probed with anti-SPP antibody. Particulars: remark: other sources report otherwise.
For experiment [6], the target named is FLAG-tagged vigilin (human) (UniProt Q00341). The experiment is described as follows: co-IP; HEK293 or HEK293 vigilin-FLAG lysate solubilized in HEPES buffer with 0.5% DDM; antibodies against SPP-CT, SPPL2b, FLAG or vigilin, overnight at 4°C; five washes with 0.02% DDM; controls pre-immune rabbit serum or anti-HA; Western blot.

No constants are given. Whether binding was seen depends on the method and setting. For some assays here: In cells and extracts the contact can be indirect. Some results given as binding are weak or reduced against the parent protein; the word gives no strength.

In the case of “FLAG-tagged vigilin (from UniProt Q00341-1 1-1268)”, the binding entry in experiment [1] is given as “binds”; in experiment [2] it was “binds”; in experiment [3], “no binding”.

As to Vigilin (from UniProt Q00341-1 1-1268), the binding entry in experiment [1] and in experiment [2] was “binds” in each case.

B1: Signal peptide peptidase, Q8TCT9 1-377 (natural protein)
chain: MDSALSDPHNGSAEAGGPTNSTTRPPSTPEGIALAYGSLLLMALLPIFFGALRSVRCARGKNASDMPETITSRDAARFPIIASCTLLGLYLFFKIFSQEYINLLLSMYFFVLGILALSHTISPFMNKFFPASFPNRQYQLLFTQGSGENKEEIINYEFDTKDLVCLGLSSIVGVWYLLRKHWIANNLFGLAFSLNGVELLHLNNVSTGCILLGGLFIYDVFWVFGTNVMVTVAKSFEAPIKLVFPQDLLEKGLEANNFAMLGLGDVVIPGIFIALLLRFDISLKKNTHTYFYTSFAAYIFGLGLTIFIMHIFKHAQPALLYLVPACIGFPVLVALAKGEVTEMFSYEESNPKDPAAVTESKEGTEASASKGLEKKEK
Consider B1, for which the binding entry in experiment [4] and in experiment [5] was “binds” in each case.

B2: Signal peptide peptidase (protein, UniProt Q8TCT9 1-377)
chain: MDSALSDPHNGSAEAGGPTNSTTRPPSTPEGIALAYGSLLLMALLPIFFGALRSVRCARGKNASDMPETITSRDAARFPIIASCTLLGLYLFFKIFSQEYINLLLSMYFFVLGILALSHTISPFMNKFFPASFPNRQYQLLFTQGSGENKEEIINYEFDTKDLVCLGLSSIVGVWYLLRKHWIANNLFGLAFSLNGVELLHLNNVSTGCILLGGLFIYDVFWVFGTNVMVTVAKSFEAPIKLVFPQDLLEKGLEANNFAMLGLGDVVIPGIFIALLLRFDISLKKNTHTYFYTSFAAYIFGLGLTIFIMHIFKHAQPALLYLVPACIGFPVLVALAKGEVTEMFSYEESNPKDPAAVTESKEGTEASASKGLEKKEK
Consider B2, for which the binding entry in experiment [6] is on record as “binds”.
